Publication PMC6896337
These are yes or no findings as the source states them, for the method shown. Binding calls can cover weak binding; strength is not graded here.

By UniProt entry, the sequences of proteins in these tests, tags left out. Where a name states a change or a piece, a line headed by the entry shows the natural chain unless it says otherwise.
UniProt Q13952: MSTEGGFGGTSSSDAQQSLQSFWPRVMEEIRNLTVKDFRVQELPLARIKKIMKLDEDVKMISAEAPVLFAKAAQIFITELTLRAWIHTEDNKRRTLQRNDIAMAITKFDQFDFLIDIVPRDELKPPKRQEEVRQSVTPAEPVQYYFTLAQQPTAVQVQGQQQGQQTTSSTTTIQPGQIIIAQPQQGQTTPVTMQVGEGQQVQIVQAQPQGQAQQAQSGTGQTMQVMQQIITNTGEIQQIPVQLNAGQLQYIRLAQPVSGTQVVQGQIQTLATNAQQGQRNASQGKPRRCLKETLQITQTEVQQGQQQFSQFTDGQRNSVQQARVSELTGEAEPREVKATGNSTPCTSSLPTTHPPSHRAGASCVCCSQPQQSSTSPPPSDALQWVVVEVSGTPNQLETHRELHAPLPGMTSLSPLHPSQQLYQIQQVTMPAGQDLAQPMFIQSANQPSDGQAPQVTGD

Target: NF-YC (in vitro translated) (human) (UniProt Q13952)
Assay: native gel or EMSA; in vitro translated NF-YAl, NF-YAs or NF-YAx combined with in vitro translated NF-YB and NF-YC; 32P-labelled double-stranded inverted CCAAT-box oligonucleotide, room temperature, 20 min; read-out is the DNA-bound NF-Y complex; also titrations of NF-YAx against constant NF-YAl and vice versa (0-4 μl)

- binding: binds
Substance: NF-YAl, fully-spliced long-form nuclear transcription factor YA (in vitro translated) (from UniProt P23511-1 1-347)
